Data: patent US20140271766A1 (priority 2013, published 2014)

Details: plasma norbuprenorphine; 2 implants; individual patient

Substance: norbuprenorphine
- Cave Day 21 to removal: 109.9, 104.1, 100.0, 103.8, 76.8, 239.1 pg/ml

Some compounds may have been tested in ways that are not shown here. The source holds more than one record for some entries. This list holds those alone. The source may hold further records. Values that stand side by side differ for a reason that is not stated; some may be repeats, others may stem from another dose, organism or construct than stated.
